Measurements published in publication PMC2621155.
These are yes or no findings as the source states them, for the method shown. In cells and extracts the contact can be indirect. For some assays here: Binding calls can cover weak binding; strength is not graded here. For some assays here: Sequences can lack the tags named with a protein. Values belong to the molecule of their own block, whether it stands above or below them.

Tests used:
[1] = target: T1, rapsyn, endogenous in C2C12 myotubes (mouse (endogenous in C2C12)) (UniProt P12672); assay: co-IP; C2C12 myotube lysates, anti-rapsyn antibody and protein A agarose beads, blot for α-actinin; myotubes untreated, with agrin 10 ng/ml 18 hr, with agrin and STI-571, or with agrin and then 10 μM carbachol for 4 hr
T1 sequence: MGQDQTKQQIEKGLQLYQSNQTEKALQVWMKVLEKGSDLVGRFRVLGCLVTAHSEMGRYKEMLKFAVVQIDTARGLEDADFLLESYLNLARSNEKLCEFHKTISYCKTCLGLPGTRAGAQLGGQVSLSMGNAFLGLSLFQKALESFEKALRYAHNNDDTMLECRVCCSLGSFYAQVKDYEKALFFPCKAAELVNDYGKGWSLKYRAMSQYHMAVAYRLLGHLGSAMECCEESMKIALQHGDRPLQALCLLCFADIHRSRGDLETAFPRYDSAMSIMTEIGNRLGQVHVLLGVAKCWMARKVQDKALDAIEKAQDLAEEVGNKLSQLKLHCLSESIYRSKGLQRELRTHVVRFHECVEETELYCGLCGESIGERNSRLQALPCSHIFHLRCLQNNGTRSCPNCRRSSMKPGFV

Myc-rapsyn (mouse) = target: T2, Myc-rapsyn (mouse) (UniProt P12672); assay: co-IP; HEK 293 cells cotransfected with GFP-α-actinin and Myc-rapsyn, Myc-calsarcin or Myc empty vector; anti-Myc antibody and protein G agarose beads; lysis buffer 50 mM Tris-HCl pH 7.5, 150 mM NaCl, 1% NP40, .5% sodium deoxycholate
T2 sequence: T1 sequence

GST-α-actinin 653–824 [2] = assay: pull-down; α-actinin 2 GST-fusion proteins immobilized on glutathione sepharose 4B beads, incubated with lysates of HEK293 cells transfected with HA-rapsyn; immunoblot with anti-HA; only the target purified
GST-α-actinin 653–824 [3] = assay: pull-down; immobilized GST-α-actinin constructs incubated with in vitro translated [^35S]-labeled rapsyn; 25 mM HEPES, 1 mM DTT, 0.5% Triton X-100, 150 mM NaCl, pH 7.5, 2 hr at 4°C; autoradiogram; only the target purified
GST-α-actinin 751–824 = assay: as above

Molecule: GFP-α-actinin
binding (Myc-rapsyn (mouse)): binds weakly

B1: HA-rapsyn (protein, UniProt P12672 1-412)
chain: T1 sequence
binding (GST-α-actinin 653–824 [2]): binds

Second part, the molecule after the results:

binding [1]: binds weakly
Molecule: α-actinin, endogenous in myotubes (mouse (endogenous in C2C12))

binding (GST-α-actinin 653–824 [3]): binds
binding (GST-α-actinin 751–824): no binding
B2: [^35S]-labeled rapsyn (protein, UniProt P12672 1-412)
chain: T1 sequence
modifications: [^35S]-labeled methionine
